Read-outs that look alike come from different tables or passages of the source. Results are given in words; binding and its absence hold for the method and conditions named. In cells and extracts the contact can be indirect. Some binding calls cover weakened binding; strength is not graded here. Sequences can lack the tags named with a protein.
B1: Nuclear receptor subfamily 0 group B member 1 (protein, UniProt Q61066 1-472)
chain: MAGEDHPWQGSILYNLLMSAKQKHASQEEREVRLGAQCWGCACGAQPVLGGERLSGGQARSLLYRCCFCGENHPRQGGILYSMLTNARQPSVATQAPRARFGAPCWGCACGSAEPLVGREGLPAGQAPSLLYRCCFCGEEHPRQGSILYSLLTSAQQTHVSREAPEAHRRGEWWQLSYCTQSVGGPEGLQSTQAMAFLYRSYVCGEEQPQQISVASGTPVSADQTPATPQEQPRAPWWDASPGVQRLITLKDPQVVCEAASAGLLKTLRFVKYLPCFQILPLDQQLVLVRSCWAPLLMLELAQDHLHFEMMEIPETNTTQEMLTTRRQETEGPEPAEPQATEQPQMVSAEAGHLLPAAAVQAIKSFFFKCWSLNIDTKEYAYLKGTVLFNPDLPGLQCVKYIEGLQWRTQQILTEHIRMMQREYQIRSAELNSALFLLRFINSDVVTELFFRPIIGAVSMDDMMLEMLCAKL

Sequences of proteins named here, by UniProt entry; tags and fusion partners are left off.
UniProt Q6P4S8: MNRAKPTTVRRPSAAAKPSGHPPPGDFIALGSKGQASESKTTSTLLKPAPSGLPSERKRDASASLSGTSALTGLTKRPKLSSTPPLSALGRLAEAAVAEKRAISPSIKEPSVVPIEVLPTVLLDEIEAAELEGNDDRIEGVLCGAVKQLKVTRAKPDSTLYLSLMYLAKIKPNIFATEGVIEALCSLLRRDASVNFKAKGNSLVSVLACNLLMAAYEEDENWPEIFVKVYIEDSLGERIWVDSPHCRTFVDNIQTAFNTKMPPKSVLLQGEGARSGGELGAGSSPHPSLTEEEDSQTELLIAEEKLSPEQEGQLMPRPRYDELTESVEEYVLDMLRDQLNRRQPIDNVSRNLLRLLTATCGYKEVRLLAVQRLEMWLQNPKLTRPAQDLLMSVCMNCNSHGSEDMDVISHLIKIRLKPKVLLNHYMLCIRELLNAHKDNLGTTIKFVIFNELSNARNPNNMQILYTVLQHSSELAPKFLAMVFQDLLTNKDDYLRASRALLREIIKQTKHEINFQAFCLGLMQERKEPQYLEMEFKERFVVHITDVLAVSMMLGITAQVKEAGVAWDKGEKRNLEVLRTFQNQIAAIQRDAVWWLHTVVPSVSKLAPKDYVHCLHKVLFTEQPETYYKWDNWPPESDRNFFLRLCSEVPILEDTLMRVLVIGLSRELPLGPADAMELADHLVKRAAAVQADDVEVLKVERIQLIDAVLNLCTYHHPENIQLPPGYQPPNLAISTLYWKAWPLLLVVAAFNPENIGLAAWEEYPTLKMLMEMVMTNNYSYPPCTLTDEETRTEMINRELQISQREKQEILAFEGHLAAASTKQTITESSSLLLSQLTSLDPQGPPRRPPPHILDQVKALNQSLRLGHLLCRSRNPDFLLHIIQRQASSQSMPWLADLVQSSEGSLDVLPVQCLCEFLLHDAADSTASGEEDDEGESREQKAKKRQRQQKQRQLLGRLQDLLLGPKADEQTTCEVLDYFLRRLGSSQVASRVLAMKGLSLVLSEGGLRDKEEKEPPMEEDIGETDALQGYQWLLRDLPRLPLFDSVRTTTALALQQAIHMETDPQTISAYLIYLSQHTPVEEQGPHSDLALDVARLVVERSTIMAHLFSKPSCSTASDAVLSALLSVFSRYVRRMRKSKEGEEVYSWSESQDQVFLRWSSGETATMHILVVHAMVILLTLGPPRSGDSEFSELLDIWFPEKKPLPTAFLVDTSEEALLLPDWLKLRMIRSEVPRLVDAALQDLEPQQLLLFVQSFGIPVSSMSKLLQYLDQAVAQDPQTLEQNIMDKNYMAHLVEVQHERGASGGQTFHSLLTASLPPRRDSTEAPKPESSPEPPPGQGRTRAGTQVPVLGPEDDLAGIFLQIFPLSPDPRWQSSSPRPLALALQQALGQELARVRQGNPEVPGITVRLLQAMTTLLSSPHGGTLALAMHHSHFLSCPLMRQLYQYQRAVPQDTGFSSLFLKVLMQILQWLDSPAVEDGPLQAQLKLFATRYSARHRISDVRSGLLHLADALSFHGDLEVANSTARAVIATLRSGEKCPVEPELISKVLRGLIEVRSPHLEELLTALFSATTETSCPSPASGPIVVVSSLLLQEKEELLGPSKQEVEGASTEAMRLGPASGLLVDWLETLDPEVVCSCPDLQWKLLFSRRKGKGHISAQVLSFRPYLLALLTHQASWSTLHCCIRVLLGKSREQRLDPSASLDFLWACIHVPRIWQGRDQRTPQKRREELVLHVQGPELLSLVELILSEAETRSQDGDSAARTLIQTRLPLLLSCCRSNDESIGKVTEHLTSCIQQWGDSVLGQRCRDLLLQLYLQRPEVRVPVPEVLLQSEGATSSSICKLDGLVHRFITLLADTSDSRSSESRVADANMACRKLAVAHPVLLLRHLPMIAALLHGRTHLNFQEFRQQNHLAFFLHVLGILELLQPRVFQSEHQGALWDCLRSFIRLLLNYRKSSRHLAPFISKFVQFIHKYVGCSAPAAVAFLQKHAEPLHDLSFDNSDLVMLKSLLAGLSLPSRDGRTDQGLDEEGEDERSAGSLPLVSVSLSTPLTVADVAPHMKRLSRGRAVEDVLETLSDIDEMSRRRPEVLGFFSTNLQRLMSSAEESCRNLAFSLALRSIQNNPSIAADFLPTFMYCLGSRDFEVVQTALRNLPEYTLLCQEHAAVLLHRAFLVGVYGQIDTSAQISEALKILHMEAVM
UniProt Q8K114: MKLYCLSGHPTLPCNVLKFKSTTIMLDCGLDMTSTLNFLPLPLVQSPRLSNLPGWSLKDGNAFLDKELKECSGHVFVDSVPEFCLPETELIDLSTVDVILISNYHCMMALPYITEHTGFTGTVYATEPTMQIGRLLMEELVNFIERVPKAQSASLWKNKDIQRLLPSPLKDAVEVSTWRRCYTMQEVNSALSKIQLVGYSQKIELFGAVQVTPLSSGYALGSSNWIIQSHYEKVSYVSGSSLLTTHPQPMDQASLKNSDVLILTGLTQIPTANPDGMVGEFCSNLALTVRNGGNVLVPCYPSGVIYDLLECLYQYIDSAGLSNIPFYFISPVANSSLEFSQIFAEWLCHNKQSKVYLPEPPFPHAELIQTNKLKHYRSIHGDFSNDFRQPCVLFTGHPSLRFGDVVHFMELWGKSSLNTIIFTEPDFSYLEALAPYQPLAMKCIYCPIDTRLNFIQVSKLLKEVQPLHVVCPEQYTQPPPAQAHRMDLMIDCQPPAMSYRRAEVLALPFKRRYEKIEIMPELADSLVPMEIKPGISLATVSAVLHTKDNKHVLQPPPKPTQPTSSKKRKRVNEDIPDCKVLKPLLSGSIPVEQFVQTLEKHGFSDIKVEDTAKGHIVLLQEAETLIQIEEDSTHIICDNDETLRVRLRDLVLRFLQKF

Assays:
[1] = target: T1, C-terminally 3xFlag-tagged Esrrb (oestrogen-related receptor beta) (mouse) (UniProt Q61539); test: co-IP; anti-FLAG M2 agarose IP of Esrrb-3xFlag from TS cell nuclear extract (buffer D, 3 h at 4 °C with Benzonase, FLAG-tripeptide elution), western blot of the eluate
T1 sequence: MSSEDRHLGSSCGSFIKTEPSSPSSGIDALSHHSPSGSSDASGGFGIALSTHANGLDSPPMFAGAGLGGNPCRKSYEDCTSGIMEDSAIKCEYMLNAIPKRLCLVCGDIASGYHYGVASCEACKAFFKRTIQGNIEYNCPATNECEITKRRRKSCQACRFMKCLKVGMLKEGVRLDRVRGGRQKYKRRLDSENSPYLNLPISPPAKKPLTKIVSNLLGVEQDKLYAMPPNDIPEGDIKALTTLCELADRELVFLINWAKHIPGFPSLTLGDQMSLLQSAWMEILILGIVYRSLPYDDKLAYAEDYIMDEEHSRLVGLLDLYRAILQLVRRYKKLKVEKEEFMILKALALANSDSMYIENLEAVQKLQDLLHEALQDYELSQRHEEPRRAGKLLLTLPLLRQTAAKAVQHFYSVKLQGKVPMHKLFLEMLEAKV

[2] = target: T1, C-terminally 3xFlag-tagged Esrrb (oestrogen-related receptor beta) (mouse); test: as above; remark: listed apart in the source

Row | binding [1] | binding [2] | Molecule
1 | binds |  | Integrator1 (Ints1) (from UniProt Q6P4S8 1-2195)
2 | binds |  | Integrator complex subunit 9 (from UniProt Q8K114 1-658)
3 |  | binds | B1

Source: article PMC4525203
